From US20260014161A1, “Uses of JAK Inhibitors in the Management of Inflammation-Associated Depression and Central Nervous System (CNS) Pathologies” (Emory University, priority 2022, published 2026)
At least one structure is not confirmed: it was looked up by name or label, or the drawing left a doubt.

Assays:
[1] = system: primary monocytes and myeloid cells; assay: Inflammation in primary monocytes and myeloid cells (FIGS. 1A-1F); format: cell-based; conditions: 1 uM baricitinib
[2] = system: IL-6 treated DA neurons derived from hiPSCs; assay: IL-6 induced molecular signatures of depression in human DA neurons (FIGS. 1G-1H); format: cell-based
TNFa = assay: Plasma TNFa levels by Meso Scale Discovery platform in depressed animals; format: in vivo, rat; conditions: IP baricitinib (25 mg) vs vehicle (saline)

CCS(=O)(=O)N1CC(CC#N)(n2cc(-c3ncnc4[nH]ccc34)cn2)C1 [baricitinib]
inflammation in primary monocytes and myeloid cells [1]: significantly reduces inflammation
IL-6 induced molecular signatures of depression (dopaminergic neurons) ([2]; IL-6 + baricitinib-treated human DA neurons): significantly reverses these signatures of depression
inflammatory dopaminergic phenotype / dopamine function ([2]; primary human dopaminergic neuronal model): reverses inflammatory dopaminergic phenotype and restores neurons to normal dopamine function
inflammation (TNF-alpha) (FIG. 2D) (TNFa): decreasing inflammation
